Experimental data: article PMC13095444, “Discovery of RGS2-FBXO44 interaction inhibitors using a cell-based NanoBit assay” (Molecular Pharmacology, 2025)
No constants are given. Whether binding was seen depends on the method and setting. In cells and extracts the contact can be indirect. Some entries that bind do so weakly or less than the wild type. For some of these results: Tags and fused reporters may be left off the sequences shown. Values belong to the binder of their own block, whether it stands above or below them.

Key:
[1] = molecular target: T1, RGS2-LgBiT (UniProt P41220); experiment: split reporter; NanoBiT luminescence in live, transiently transfected HEK-293T cells; every combination of RGS2 and FBXO44 NanoBiT constructs; 15,000 cells/well, 2 hours incubation
T1 sequence: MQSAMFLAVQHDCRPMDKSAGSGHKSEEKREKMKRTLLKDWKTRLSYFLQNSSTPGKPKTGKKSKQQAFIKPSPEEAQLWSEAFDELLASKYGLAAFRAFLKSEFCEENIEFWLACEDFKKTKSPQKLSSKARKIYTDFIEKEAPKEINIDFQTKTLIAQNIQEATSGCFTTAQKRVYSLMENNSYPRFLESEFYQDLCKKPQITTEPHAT

[2] = molecular target: T2, RGS2-SmBiT (UniProt P41220 1-211); experiment: split reporter; NanoBiT luminescence in live stable HEK-293T cells (BiBiT dual-expression vector, single clone #6), 384-well plates, Nano-Glo Live Cell Substrate in HBSS, 20 minutes at room temperature, normalised to viability; compared with nontransfected HEK-293T cells; used for treatment with library compounds (100 uM or 500-0.01 uM, 16-18 hours)
T2 construct: Regulator of G protein signaling 2 (RGS2); cloned in-house into pBiT2.3-C[CMV/SmBiT/Blast]; The linker between RGS2 and SmBiT is not described; In the BiBiT construct RGS2-SmBiT and LgBiT-FBXO44 are expressed from one plasmid with a bidirectional CMV promoter; also called C-terminally tagged RGS2; source: HEK-293T, transiently transfected, in live cells; not shown: SmBiT, C-terminal, kept
T2 sequence (looked up): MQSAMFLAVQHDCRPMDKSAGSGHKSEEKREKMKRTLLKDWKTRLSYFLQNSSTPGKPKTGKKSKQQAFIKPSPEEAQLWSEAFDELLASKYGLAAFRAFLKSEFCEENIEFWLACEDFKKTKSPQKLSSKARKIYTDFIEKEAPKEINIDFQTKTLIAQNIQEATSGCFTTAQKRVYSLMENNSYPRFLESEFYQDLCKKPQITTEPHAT

[3] = molecular target: T3, RGS2-HA (UniProt P41220); experiment: co-IP; as a3 but with 100 uM compound 10 (results: cells treated overnight, 16-18 hours; methods: lysates incubated 30 minutes at 4 °C); precipitation with anti-HA, western blot for FLAG
T3 sequence: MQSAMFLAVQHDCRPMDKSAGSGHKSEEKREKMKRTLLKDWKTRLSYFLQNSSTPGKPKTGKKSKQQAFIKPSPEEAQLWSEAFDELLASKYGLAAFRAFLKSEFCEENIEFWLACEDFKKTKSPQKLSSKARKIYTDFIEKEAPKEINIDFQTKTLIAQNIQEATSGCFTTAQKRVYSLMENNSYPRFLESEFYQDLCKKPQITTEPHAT

[4] = molecular target: T3, RGS2-HA; experiment: co-IP; HEK-293T cells transfected with RGS2-HA and FLAG-FBXO44, vehicle (DMSO); lysis in RIPA buffer, precipitation with rabbit anti-HA antibody and protein A agarose at 4 °C overnight, western blot for FLAG

binding [1]: binds
B1: SmBiT-FBXO44 (protein, UniProt Q9H4M3 1-255)
chain: MAVGNINELPENILLELFTHVPARQLLLNCRLVCSLWRDLIDLVTLWKRKCLREGFITEDWDQPVADWKIFYFLRSLHRNLLHNPCAEEGFEFWSLDVNGGDEWKVEDLSRDQRKEFPNDQVKKYFVTSYYTCLKSQVVDLKAEGYWEELMDTTRPDIEVKDWFAARPDCGSKYQLCVQLLSSAHAPLGTFQPDPATIQQKSDAKWREVSHTFSNYPPGVRYIWFQHGGVDTHYWAGWYGPRVTNSSITIGPPLP

B2: LgBiT-FBXO44 (natural protein, UniProt Q9H4M3 1-255, looked up)
chain: MAVGNINELPENILLELFTHVPARQLLLNCRLVCSLWRDLIDLVTLWKRKCLREGFITEDWDQPVADWKIFYFLRSLHRNLLHNPCAEEGFEFWSLDVNGGDEWKVEDLSRDQRKEFPNDQVKKYFVTSYYTCLKSQVVDLKAEGYWEELMDTTRPDIEVKDWFAARPDCGSKYQLCVQLLSSAHAPLGTFQPDPATIQQKSDAKWREVSHTFSNYPPGVRYIWFQHGGVDTHYWAGWYGPRVTNSSITIGPPLP
notes: F-box Only Protein 44 (FBXO44); cloned in-house into pBiT1.3-N[CMV/LgBiT/Hygro]; The linker between LgBiT and FBXO44 is not described; also called N-terminally tagged FBXO44; source: HEK-293T, transiently transfected, in live cells; not shown: LgBiT, N-terminal, kept
binding [2]: binds

binding [3]: binds weakly | binding [4]: binds
B3: FLAG-FBXO44 (protein, UniProt Q9H4M3 1-255)
chain: MAVGNINELPENILLELFTHVPARQLLLNCRLVCSLWRDLIDLVTLWKRKCLREGFITEDWDQPVADWKIFYFLRSLHRNLLHNPCAEEGFEFWSLDVNGGDEWKVEDLSRDQRKEFPNDQVKKYFVTSYYTCLKSQVVDLKAEGYWEELMDTTRPDIEVKDWFAARPDCGSKYQLCVQLLSSAHAPLGTFQPDPATIQQKSDAKWREVSHTFSNYPPGVRYIWFQHGGVDTHYWAGWYGPRVTNSSITIGPPLP
